Test results reported in PubChem BioAssay AID504834 (National Center for Advancing Translational Sciences (NCATS), 2011).
“And” between values parts separate entries of the source, which are not always exact repeats. Equal entries are not always repeated. Among all 320,000 compounds or so, about 22,000 (6.9%) were called active. The inconclusive results got no clear call from the source; some entries with a clear call stand among them for comparison. Calls come from the whole dose curve; as a rule, active = well fitted inhibition curve with a large enough effect; inconclusive = small, poorly fitted or top-dose-only effect, or another doubt; inactive = no such curve, though single readings can be large or run the other way. A potency beside an inconclusive call is a rough fit, not a confirmed value.

Test: Primary qHTS for delayed death inhibitors of the malarial parasite plastid, 96 hour incubation
Settings: P. falciparum luciferase reporter growth; series mostly up to 28.7 µM
How it was run: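 Two-generation exposure (96 h) targets delayed-death phenotype. Reporter parasites carrying integrated firefly luciferase, in red cells at 2% hematocrit and 0.05% parasitemia final, kept at 37 C, 5% CO2; luminescence loss indicates inhibition.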
Potency is the fitted concentration of half-maximal effect.

Structure (SMILES) | Potency
CC(=O)c1ccccc1Oc1ncnc(N)c1[N+](=O)[O-] | inactive
COc1ccc2c(c1)c(C(=O)N/N=C/c1cccc(Br)c1)c(C)n2C | inconclusive: 5.86 µM [inhibitor, partial curve]
O=C1CCC(c2ccccc2)(c2ccccc2)CC1 | inconclusive: 13.1 µM [inhibitor, partial curve, poor fit]
COc1cc(C(=O)NCCCn2ccnc2)cc(OC)c1OC | inconclusive: 3.7 µM [inhibitor, partial curve, poor fit]
CC(C)C(C(=O)NCc1ccco1)N(C(=O)CNS(=O)(=O)c1ccc(Cl)cc1)C1CCCC1 (centres undefined) | inconclusive: 10.4 µM [inhibitor, partial curve, poor fit]
CN1CCc2c(sc(NC(=O)Cc3ccccc3)c2C(N)=O)C1 | inactive
Cc1cc(C)c(S(=O)(=O)NCC(c2ccc3c(c2)OCO3)N2CCOCC2)c(C)c1 (centres undefined) | inconclusive: 18.5 µM [inhibitor, single point]
Cc1ccc(N2CC(C(=O)Nc3ccc4c(c3)OCCO4)CC2=O)cc1C (centres undefined) | inactive
COc1ccc(CCNC(=O)c2ccc(CN3CCC(Cc4ccccc4)CC3)cc2)cc1OC | inconclusive: 0.586 µM [inhibitor, partial curve, poor fit]
Cc1cccc(NS(=O)(=O)c2cccc(C(=O)N3CCCC(C(F)(F)F)C3)c2)c1 (centres undefined) | inactive
Cc1ccc(NC(=O)c2cc(S(=O)(=O)N(C)C)ccc2N2CCCC2)cc1S(=O)(=O)N(C)C | active: 10.4 µM
O=C1/C(=C/N(C(=O)c2ccco2)c2ccc(Cl)cc2)Sc2ccccc21 | inactive
Cc1sc(NC(=O)c2ccco2)c(C(c2ccccc2)N2CCC(C)CC2)c1C (centres undefined) | inconclusive: 1.47 µM [inhibitor, full curve, poor fit]
Cc1ccc(C2=NN(C(=O)CSc3nnnn3C)C(c3ccco3)C2)cc1 (centres undefined) | inactive
CCOc1ccc(CCNC(=O)COC(=O)/C=C/c2ccc(OC)c(OC)c2)cc1OCC | inconclusive: 14.7 µM [inhibitor, partial curve]
Cn1cnnc1SCC(C)(C)NS(=O)(=O)c1ccc(Cl)cc1 | inconclusive: 18.5 µM [inhibitor, single point]
COc1cccc(CNC(=O)CSc2nnc3c(n2)[nH]c2ccc(C)cc23)c1 | inactive
CCc1nn(CC(=O)NCCC2=CCCCC2)c(=O)c2cc3cc(F)ccc3n12 | inconclusive: 8.28 µM [inhibitor, partial curve]
Cc1cccnc1NC(=O)c1ccc(C(=O)c2ccccc2)cc1 | inactive
O=C(CNCc1ccccn1)N1CCc2ccccc2C1 | inconclusive: 18.5 µM [inhibitor, partial curve, poor fit]
COc1cc(NC(=O)CN2CCN(c3ccccc3O)CC2)c(C)cc1[N+](=O)[O-] | inconclusive: 13.1 µM [inhibitor, single point]
COc1ccc(N2CCN(CCCNC(=O)CN3CCN(Cc4ccccc4C)C3=O)CC2)cc1 | inactive

Compounds shown so far that contain an aryl methoxy group (seven):
Structure (SMILES) | Potency
COc1ccc2c(c1)c(C(=O)N/N=C/c1cccc(Br)c1)c(C)n2C | inconclusive: 5.86 µM [inhibitor, partial curve]
COc1cc(C(=O)NCCCn2ccnc2)cc(OC)c1OC | inconclusive: 3.7 µM [inhibitor, partial curve, poor fit]
COc1ccc(CCNC(=O)c2ccc(CN3CCC(Cc4ccccc4)CC3)cc2)cc1OC | inconclusive: 0.586 µM [inhibitor, partial curve, poor fit]
CCOc1ccc(CCNC(=O)COC(=O)/C=C/c2ccc(OC)c(OC)c2)cc1OCC | inconclusive: 14.7 µM [inhibitor, partial curve]
COc1cccc(CNC(=O)CSc2nnc3c(n2)[nH]c2ccc(C)cc23)c1 | inactive
COc1cc(NC(=O)CN2CCN(c3ccccc3O)CC2)c(C)cc1[N+](=O)[O-] | inconclusive: 13.1 µM [inhibitor, single point]
COc1ccc(N2CCN(CCCNC(=O)CN3CCN(Cc4ccccc4C)C3=O)CC2)cc1 | inactive

(list continues)

Structure (SMILES) | Potency
C/C=C/C(=O)N1CC2(CC(c3cccc(NC(=O)COc4ccc(Cl)cc4)c3)=NO2)C[C@@H]1C(N)=O (some centres undefined) | active: 5.22 µM
COc1ccc(-c2cn3c(C)c(C(=O)NC(C)(C)C)sc3n2)cc1 | inactive
CCOc1ccccc1NC(=O)CCS(=O)(=O)c1cccs1 | inactive
CS(=O)(=O)c1ccc2nc(NC(=O)CCNC(=O)c3ccccc3Cl)sc2c1 | inactive
COc1ccc(-c2nnc(SCC(=O)c3[nH]c(C)c(C(C)=O)c3C)o2)cc1 | inactive
O=C(O)CC/C(=N\Nc1ccc(S(=O)(=O)N2CCCC2)cc1[N+](=O)[O-])c1cccs1 | inconclusive: 6.57 µM [inhibitor, partial curve, poor fit]
COc1cc(Cn2nnc3ccccc32)cc(Br)c1O | inconclusive: 20.8 µM [inhibitor, partial curve, poor fit]
CCOc1ccccc1-n1c(SCC(=O)NC2CCCC2)nnc1-c1ccoc1C | inconclusive: 18.5 µM [inhibitor, single point]
CCN(CC)CCn1c2c(c(SCC(=O)Nc3ccccc3Cl)nc1=O)CCCC2 | inconclusive: 10.4 µM [inhibitor, single point]
Fc1ccc(CNCCc2ccccc2)cc1 | inactive
C=CCn1c(SCc2ccc(C(=O)NCCO)cc2)nc2ccccc2c1=O | inconclusive: 3.29 µM [inhibitor, partial curve, poor fit]
NC1=NC(=O)C(Cc2ccc(OC(F)(F)F)cc2)S1 (centres undefined) | inactive
Cc1csc(NC(=O)c2cc(-c3ccccc3)nc3ccccc23)n1 | inconclusive: 13.1 µM [inhibitor, single point]
CC(c1ccccc1)N(C)C(=O)CN1CCN(S(=O)(=O)c2ccc3c(c2)OCCCO3)CC1 (centres undefined) | inconclusive: 20.8 µM [inhibitor, single point]
COc1cccc(N2CCN(c3ncnc4c3cnn4-c3ccc(C)cc3C)CC2)c1 | active: 5.86 µM
CCN1C(=NCc2cccc(Cl)c2)N[C@@H](c2cccc(F)c2)C(C(=O)OC)=C1C | inconclusive: 4.15 µM [inhibitor, partial curve] and inconclusive: 5.22 µM [inhibitor, full curve, poor fit]
CSc1nsc(SCC(=O)Nc2ccccc2)n1 | inactive
O=C(NC1CCOCC1)C1CCC(=O)N(Cc2ccc(Cl)cc2)C1 (centres undefined) | inconclusive: 18.5 µM [inhibitor, single point]
Cc1c(-c2ccccc2)oc2c(C(=O)N3CCN(c4ccc([N+](=O)[O-])cc4)CC3)cccc2c1=O | inconclusive: 2.33 µM [inhibitor, full curve, poor fit]
CN(C)S(=O)(=O)c1cccc(NC(=O)COC(=O)/C=C/c2ccc([N+](=O)[O-])cc2)c1 | inactive
CCN(CC(=O)NCc1cccs1)C(=O)/C=C/c1cccc(Cl)c1Cl | inactive
Cc1nc2sccn2c(=O)c1S(=O)(=O)NCCc1ccc(Cl)cc1 | inconclusive: 1.85 µM [inhibitor, full curve, poor fit]
